Source: patent publication US20210047417A1
Results are given in words; binding and its absence hold for the method and conditions named. Some binding calls cover weakened binding; strength is not graded here.

Target: T1, Recombinant MICB protein (UniProt Q29980)
T1 sequence (looked up): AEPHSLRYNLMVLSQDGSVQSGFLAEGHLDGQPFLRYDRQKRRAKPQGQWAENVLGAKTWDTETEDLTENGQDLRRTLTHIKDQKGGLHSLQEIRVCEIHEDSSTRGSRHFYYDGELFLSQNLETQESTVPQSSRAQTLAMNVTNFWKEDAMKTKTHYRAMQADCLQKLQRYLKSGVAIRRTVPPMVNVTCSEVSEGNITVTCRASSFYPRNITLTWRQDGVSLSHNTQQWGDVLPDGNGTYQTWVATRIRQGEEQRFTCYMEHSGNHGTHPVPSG
Assay: ELISA, antigen coated, PDI-1 0-1 µg/ml (legend of FIG. 2)

binding: binds
B1: Anti-MICA/B Monoclonal Antibody (PDI-1) (antibody, mouse IgG2a, kappa, V domains shown)
VH: QIQLVQSGPELKKSGETVKISCKAFGYTFTNYGMNWVKQAPGKGLKWMGWINTYTGEPTYADDFKGRFAFSLETSASTAYLQINHLKNEDTATYFCARNYGNYLFDYWGQGTTLTVSS
VL: DIQMTQTTSSLSASLGDRVTISCSASQGISNYLNWYQQKPDGTLKLLIQYTSLLHSGVPSRFSGSGSGTEYSLTISNLEPEDIATYFCQQYSKFPRTFGGGTKLEIKR
